Here are results for two substances from patent US7728105B2, “Peptides impairing PBX dependent gene regulation” (St. George's Hospital Medical School, priority 2002, dated 2010).

Data set [1] relates to CD133+ cells. As to the kind of experiment: CD133+ cell proliferation in cytokine supplemented liquid culture over 18 days. Type of data set: cell-based, human. On the procedure:
CD133+ cells (another name for AC133+ cells) were seeded in duplicate at 4×10^4 cells/ml in IMDM (Life Technologies), 10% FCS (Sigma Aldrich) and gentamycin (50 μg/ml Life Technologies) and Thrombopoietin (TPO) 10 ng/ml, Flt3-Ligand (FL) 50 ng/ml & c-KitL (K) 20 ng/ml), all obtained from R and D systems Ltd., UK. (Forraz et al., 2002). The HXP peptide (N-term: WYPWMKKHHRQIKIWFQNRRMKWKK: C-term; Eurogentec, Belgium) and control CXP peptide (N-term: WCCLADRHGRQIKIWFQNRRMKWKK: C-term; Eurogentec, Belgium) were added to culture medium at a concentration of 20 μg/ml. To withdraw peptides from culture, cells were washed twice in IMDM or RPMI and reseeded at prewash cell densities. Primary cells were cultured for 3 weeks at 37° C., 5% CO2 in humidified atmosphere and enumerated by a […] exclusion method with a heamocytometer.

Data set [2] has as its system KG1a, HL60 and U937 leukaemic cell lines. As to the kind of experiment: Growth of leukaemic cell lines over 48 hours (Example 3). It counts as cell-based, human. On the procedure:
KG1a, HL60 and U937 cell lines were seeded as described in Example 1.
All cell lines were grown with HXP peptide (20 μg/ml) or CXP (20 μg/ml). Cell lines were cultured for various time points at 37° C., 5% CO2 in humidified atmosphere and enumerated at various time points.

As for “WCCLADRHGRQIKIWFQNRRMKWKK (WCCLADRHGRQIKIWFQNRRMKWKK) [CXP, reference compound]”, the “cellular morphology and integrity” value in data set [1] and in data set [2] was “no apparent change” each time.
For “WYPWMKKHHRQIKIWFQNRRMKWKK [HXP peptide]”, the “cellular morphology and integrity” value in data set [1] and in data set [2] was “no apparent change” in each case.
